# Results are given in words; binding and its absence hold for the method and conditions named. Some results given as binding are weak or reduced against the parent protein; the word gives no strength.
# Amino acid sequences for entries named in this document (tags omitted). A change or cut given only in a name is not applied to a line headed by its entry.
# UniProt Q9Y5U5: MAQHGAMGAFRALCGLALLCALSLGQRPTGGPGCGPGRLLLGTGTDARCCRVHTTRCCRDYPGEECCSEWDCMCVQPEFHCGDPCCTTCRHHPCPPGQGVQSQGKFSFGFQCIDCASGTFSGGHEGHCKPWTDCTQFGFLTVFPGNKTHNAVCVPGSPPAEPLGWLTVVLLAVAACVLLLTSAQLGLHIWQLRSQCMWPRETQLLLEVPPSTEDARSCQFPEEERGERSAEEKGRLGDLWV
# Target: human GITR (human) (UniProt Q9Y5U5)
# Test: flow cytometry on Jurkat cells expressing human GITR
row,binding,Binder
1,binds,"pab1967 (IgG1) (antibody, V domains shown) VH: QVQLVQSGAEVKKPGASVKVSCKGSGYTFTGYAMHWVRQAPGQGLEWMGLIRTYSGGVSYNQKFRERATMTVDTSISTAYMELSRLRSDDTAVYYCAKSGTVRGFAYWGQGTLITVSS VL: DIVMTQSPDSLAVSLGERATINCKSSQSLLNSSNQKNYLTWYQQKPGQPPKLLIYWASTRESGVPDRFTGSGSGTDFTLTISSVQAEDVAVYHCQNEYSFPYTFGQGTKLEIK"
2,binds,"pab1967 (IgG1 N297A) (antibody, V domains shown) VH: QVQLVQSGAEVKKPGASVKVSCKGSGYTFTGYAMHWVRQAPGQGLEWMGLIRTYSGGVSYNQKFRERATMTVDTSISTAYMELSRLRSDDTAVYYCAKSGTVRGFAYWGQGTLITVSS VL: DIVMTQSPDSLAVSLGERATINCKSSQSLLNSSNQKNYLTWYQQKPGQPPKLLIYWASTRESGVPDRFTGSGSGTDFTLTISSVQAEDVAVYHCQNEYSFPYTFGQGTKLEIK"

# More lines, now with the values behind:
row,Binder,binding
1,"pab1876 (IgG1) (antibody, V domains shown) VH: QVQLVQSGAEVKKPGASVKVSCKGSGYTFTDYAMYWVRQAPGQGLEWIGVIRTYSGDVTYNQKFKDRATMTVDKSISTAYMELSRLRSDDTAVYYCAKSGTVRGFAYWGQGTLVTVSS VL: DIVMTQSPDSLAVSLGERATINCKSSQSLLNSGNQKNYLTWYQQKPGQPPKLLIYWASTRESGVPDRFSGSGSGTDFTLTISSLQAEDVAVYHCQNDYSYPYTFGQGTKLEIKR",binds
2,"pab1876 D57G (IgG1) (antibody, V domains shown) VH: QVQLVQSGAEVKKPGASVKVSCKGSGYTFTDYAMYWVRQAPGQGLEWIGVIRTYSGGVTYNQKFKDRATMTVDKSISTAYMELSRLRSDDTAVYYCAKSGTVRGFAYWGQGTLVTVSS VL: DIVMTQSPDSLAVSLGERATINCKSSQSLLNSGNQKNYLTWYQQKPGQPPKLLIYWASTRESGVPDRFSGSGSGTDFTLTISSLQAEDVAVYHCQNDYSYPYTFGQGTKLEIK",binds
3,"pab1876 R103A (IgG1) (antibody, V domains shown) VH: QVQLVQSGAEVKKPGASVKVSCKGSGYTFTDYAMYWVRQAPGQGLEWIGVIRTYSGDVTYNQKFKDRATMTVDKSISTAYMELSRLRSDDTAVYYCAKSGTVAGFAYWGQGTLVTVSS VL: DIVMTQSPDSLAVSLGERATINCKSSQSLLNSGNQKNYLTWYQQKPGQPPKLLIYWASTRESGVPDRFSGSGSGTDFTLTISSLQAEDVAVYHCQNDYSYPYTFGQGTKLEIK",binds
4,"pab1876 D97A (IgG1) (antibody, V domains shown) VH: QVQLVQSGAEVKKPGASVKVSCKGSGYTFTDYAMYWVRQAPGQGLEWIGVIRTYSGDVTYNQKFKDRATMTVDKSISTAYMELSRLRSDDTAVYYCAKSGTVRGFAYWGQGTLVTVSS VL: DIVMTQSPDSLAVSLGERATINCKSSQSLLNSGNQKNYLTWYQQKPGQPPKLLIYWASTRESGVPDRFSGSGSGTDFTLTISSLQAEDVAVYHCQNAYSYPYTFGQGTKLEIK",binds

# Reference: patent US20190367627A1
